Data from PubChem BioAssay AID1347426 (Functional Genomics Laboratory (NCATS/FGL), 2020).
Among all 31,000 sequences or so, about 1,400 (4.5%) were called active.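 How the source made its calls: active means median seed-adjusted z-score above 1 or below -1; inactive means the rest.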 The list shows a part of the results.

Experiment: Novel Modifiers of Survival Motor Neuron (SMN) Protein: Gene Identification via Genome-wide siRNA Screen;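 further: luminescence tracks full-length SMN protein made from the SMN2 reporter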
Details: HEK293T SMN2-luciferase reporter, siRNA knockdown, 72 h; actives lie on both sides
Summary of the method: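 Steps: spot 1 pmol siRNA, add Lipofectamine RNAiMax in serum-free DMEM, seed HEK293T SMN2–luciferase reporter cells; incubate 72 h at 37 °C; add ONE-Glo; normalize luminescence to control siRNA, log10, MAD. Candidates: |MAD| > 1.0.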

| Sequence | median seed-adjusted z-score |
| --- | --- |
| GCAUAUGGUUCUGAAGAUATT against GTF2E1 | active: 1.76 |
| CAGAGUAACUGGACGAAAUTT against NFAT5 | inactive: 0.106 |
| GAAGAUCGAUUUGACAAAUTT against TM9SF3 | inactive: -0.267 |
| CAAUGCAGUUUAUUAGUCATT against RIT2 | inactive: 0.253 |
| GAUGGGUAAAUGUACAUAUTT against KCNIP4 | inactive: -0.401 |
| GGAUUACGUAUCAGACAUATT against CNGA1 | active: -1.08 |
| CCAUUGAUGACUGUACUAATT against RP2 | inactive: -0.655 |
| GCUUAUUGUCCAUUCACAUTT against NAT8 | inactive: -0.228 |
| GCAUCUACGACCAGGUGUATT against PAQR9 | inactive: 0.116 |
| CAACAUCGCUGACCAGGAUTT against ASB10 | inactive: 0 |
| CACCCAGUGUAGAACUAGATT against ARID4B | inactive: 0.211 |
| GUUUGAUGGUAGGAUCGUATT against CAPS2 | inactive: 0.135 |
| GAGUCACAGUUGAAGAUCUTT against GOT2 | inactive: 0.205 |
| GGCAAAAUCCCGUAUGAAATT against ITK | inactive: -0.0372 |
| CGACUAGUACAUCAAUUAATT against ERC2 | inactive: 0.172 |
| GCUACCACCUAAUAGUUUUTT against DECR1 | inactive: 0.0567 |
| GAGCCUGACUCAGUCUUUATT against AQP9 | inactive: -0.192 |
| GGAAUAUCUUGUACCGGAATT against QRSL1 | inactive: -0.539 |
| GGGAUUUUUCUGCAAAGAATT against ATG4A | inactive: -0.288 |
| GGAUUUCUAGGUGGAGUAATT against CHPT1 | inactive: 0.0678 |
| AAAUCCCGGUGAUAAUAGATT against MAP1LC3B | inactive: -0.0749 |
| GCGAGAAAGUCAUGCAUGATT against PCDH19 | inactive: 0 |
| CUACCUGUAUGAGAUCCAATT against IGF2R | inactive: 0.274 |
| GAUUAUCCUUGUACUUUGATT against OAZ1 | inactive: 0.144 |
| GUUUUUAUCUGAAUGCAUATT against BCL2L10 | inactive: 0.361 |
| CGUGCCUUAUGUCCUCAUATT against RHOJ | inactive: -0.304 |
| GCAUAUAGAGUAACAACAATT against SNX2 | inactive: -0.569 |

| Sequence | median seed-adjusted z-score |
| --- | --- |
| AGUUCACCGUGCAAAUGCATT against HBM | inactive: 0 |
| AGUGCAUGGUUGCAGCUGATT against RNF144A | inactive: -0.185 |
| GAACAGUGCGGUGAUAUUATT against ENOX1 | inactive: 0.0694 |
| GGACAGUGGAACUUAUAGATT against MANBA | inactive: 0.473 |
| CGCGGCAGGUCAUUAGUAATT against EIF2AK3 | inactive: -0.0208 |
| GGUACUUUACUAUCUUCUATT against MC4R | inactive: 0.154 |
| UGAAUACAACGCCACACAATT against HNRNPA1L2 | inactive: 0.732 |
| CAGCCGUCGAAGGAACUCATT against KIF12 | inactive: 0.0971 |
| CACAAGUUGUGCCUAAUAATT against ZNF280B | inactive: 0.113 |
| GCAUAAGGAUAGCACUGGATT against SDCBP | inactive: 0.0325 |
| CUAAGAUGGUUAUCAAGAATT against SLC1A2 | inactive: 0.249 |
| GCGAGUCCAUAGGCGAGAATT against RAPSN | inactive: 0.143 |
| GACUUGAAGAUGCUAAUCATT against TIPIN | inactive: 0 |
| GGUGAACAGUGGUAUAGCATT against HDAC10 | inactive: -0.165 |
| GGAUGACCCUCAAUGACGATT against ZFHX4 | inactive: 0.0868 |
| GCGUCAGGGCUAUACCAUATT against CACNA1E | inactive: 0.285 |
| UCACUAUUCUAUGCCUUAATT against TAGAP | inactive: 0 |
| AUAUGUCUCUGUAAAGUGATT against SP5 | inactive: 0.105 |
| CAGAUGCGGUUUAAACAGATT against TBC1D9B | inactive: -0.906 |
| AGACACCGCUGUCCACUCATT against NOS1AP | inactive: 0.00192 |
| AGCCCAAGGUGGAACAAUCTT against CREM | active: -2.37 |
| CCUUAUUACGGGAGGGUGATT against IL22RA2 | inactive: -0.147 |
| CAGUAGAACUUGGAUUAGATT against AKAP5 | inactive: 0.0592 |
| ACAGCUCCGUGUUGACUCATT against FOXG1 | inactive: 0.749 |
| CCUCAUCUAUGGGCACUUUTT against HMGCL | inactive: 0.046 |
| GGAUGACUGUACUAAGAAATT against ZNF554 | inactive: 0.0311 |
| GAGUUUCUGUGGACCGCAATT against TRIM2 | inactive: -0.207 |

15 successive records already listed, for reference:

| Sequence | median seed-adjusted z-score |
| --- | --- |
| UGAAUACAACGCCACACAATT against HNRNPA1L2 | inactive: 0.732 |
| CAGCCGUCGAAGGAACUCATT against KIF12 | inactive: 0.0971 |
| CACAAGUUGUGCCUAAUAATT against ZNF280B | inactive: 0.113 |
| GCAUAAGGAUAGCACUGGATT against SDCBP | inactive: 0.0325 |
| CUAAGAUGGUUAUCAAGAATT against SLC1A2 | inactive: 0.249 |
| GCGAGUCCAUAGGCGAGAATT against RAPSN | inactive: 0.143 |
| GACUUGAAGAUGCUAAUCATT against TIPIN | inactive: 0 |
| GGUGAACAGUGGUAUAGCATT against HDAC10 | inactive: -0.165 |
| GGAUGACCCUCAAUGACGATT against ZFHX4 | inactive: 0.0868 |
| GCGUCAGGGCUAUACCAUATT against CACNA1E | inactive: 0.285 |
| UCACUAUUCUAUGCCUUAATT against TAGAP | inactive: 0 |
| AUAUGUCUCUGUAAAGUGATT against SP5 | inactive: 0.105 |
| CAGAUGCGGUUUAAACAGATT against TBC1D9B | inactive: -0.906 |
| AGACACCGCUGUCCACUCATT against NOS1AP | inactive: 0.00192 |
| AGCCCAAGGUGGAACAAUCTT against CREM | active: -2.37 |
